Assay results taken from patent US20050244921A1.
No constants are given. Whether binding was seen depends on the method and setting. Some binding calls cover weakened binding; strength is not graded here. Where a sequence is shown, tags or fusion partners need not be part of it.

Target: Polyhistidine-tagged DsRed K83R (Discosoma sp.)
Experiment: SDS-PAGE, 200 mM DTT, not heated

binding: binds
B1: Polyhistidine-tagged DsRed K83R (protein)
chain: MRGSHHHHHHGMASMTGGQQMGRDLYDDDDKDPMRSSKNVIKEFMRFKVRMEGTVNGHEFEIEGEGEGRPYEGHNTVKLKVTKGGPLPFAWDILSPQFQYGSKVYVKHPADIPDYRKLSFPEGFKWERVMNFEDGGVVTVTQDSSLQDGCFIYKVKFIGVNFPSDGPVMQKKTMGWEASTERLYPRDGVLKGEIHKALKLKDGGHYLVEFKSIYMAKKPVQLPGYYYVDSKLDITSHNEDYTIVEQYERTEGRHHLFL
